These are yes or no findings as the source states them, for the method shown. In cells and extracts the contact can be indirect. A yes stands for co-enrichment or nearness to the bait. Other partners may have been found.
How the values were obtained:
FLAG-BirA*-∆F508-CFTR = FLAG-BirA*-∆F508-CFTR (UniProt P13569); assay: proximity labelling; BioID in living HEK293 Flp-In T-REx cells: FLAG-BirA*-CFTR or FLAG-BirA*-∆F508-CFTR bait induced with 1 µg/mL tetracycline, 50 µM biotin; biotinylated preys captured on streptavidin beads and identified by mass spectrometry; SAINT against FlagBirA* alone, BFDR ≤ 0.01; WT in vehicle (0.1% DMSO); ∆F508 in vehicle or Orkambi (3 µM VX-809 + 1 µM VX-770), with or without MG132
[1] = biological target: FLAG-BirA*-CFTR (wild type Cystic Fibrosis Transmembrane Conductance Regulator) (UniProt P13569); assay: as above

Amino acid sequences for entries named in this document (tags omitted). Residues count along the entry.
UniProt P56962: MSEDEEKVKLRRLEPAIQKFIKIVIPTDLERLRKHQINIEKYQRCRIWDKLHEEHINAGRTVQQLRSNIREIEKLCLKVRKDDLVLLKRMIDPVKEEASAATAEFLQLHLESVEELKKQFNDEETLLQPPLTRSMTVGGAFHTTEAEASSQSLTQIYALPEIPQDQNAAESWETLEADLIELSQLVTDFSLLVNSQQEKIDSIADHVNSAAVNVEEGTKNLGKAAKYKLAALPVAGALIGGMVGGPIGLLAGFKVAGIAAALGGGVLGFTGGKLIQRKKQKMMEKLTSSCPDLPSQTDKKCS
UniProt Q13586, residues 23-685: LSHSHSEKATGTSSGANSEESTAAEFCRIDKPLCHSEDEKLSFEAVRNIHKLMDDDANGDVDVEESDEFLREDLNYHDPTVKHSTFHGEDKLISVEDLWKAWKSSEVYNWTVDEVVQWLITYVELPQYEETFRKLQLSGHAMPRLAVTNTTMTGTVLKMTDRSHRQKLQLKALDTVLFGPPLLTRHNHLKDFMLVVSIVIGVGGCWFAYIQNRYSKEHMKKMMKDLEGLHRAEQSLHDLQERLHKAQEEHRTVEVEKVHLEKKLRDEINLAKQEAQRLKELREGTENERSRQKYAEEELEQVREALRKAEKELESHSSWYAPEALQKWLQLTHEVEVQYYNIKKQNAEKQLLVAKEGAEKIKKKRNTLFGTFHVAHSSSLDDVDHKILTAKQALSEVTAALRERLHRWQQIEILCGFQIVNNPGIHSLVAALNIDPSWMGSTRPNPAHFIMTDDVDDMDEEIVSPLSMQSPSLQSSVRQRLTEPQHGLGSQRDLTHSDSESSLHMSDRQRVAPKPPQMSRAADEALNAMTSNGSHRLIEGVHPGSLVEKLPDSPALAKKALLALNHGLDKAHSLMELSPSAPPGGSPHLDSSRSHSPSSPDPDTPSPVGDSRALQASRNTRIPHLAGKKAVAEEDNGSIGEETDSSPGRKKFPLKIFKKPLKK
UniProt Q8IWU2: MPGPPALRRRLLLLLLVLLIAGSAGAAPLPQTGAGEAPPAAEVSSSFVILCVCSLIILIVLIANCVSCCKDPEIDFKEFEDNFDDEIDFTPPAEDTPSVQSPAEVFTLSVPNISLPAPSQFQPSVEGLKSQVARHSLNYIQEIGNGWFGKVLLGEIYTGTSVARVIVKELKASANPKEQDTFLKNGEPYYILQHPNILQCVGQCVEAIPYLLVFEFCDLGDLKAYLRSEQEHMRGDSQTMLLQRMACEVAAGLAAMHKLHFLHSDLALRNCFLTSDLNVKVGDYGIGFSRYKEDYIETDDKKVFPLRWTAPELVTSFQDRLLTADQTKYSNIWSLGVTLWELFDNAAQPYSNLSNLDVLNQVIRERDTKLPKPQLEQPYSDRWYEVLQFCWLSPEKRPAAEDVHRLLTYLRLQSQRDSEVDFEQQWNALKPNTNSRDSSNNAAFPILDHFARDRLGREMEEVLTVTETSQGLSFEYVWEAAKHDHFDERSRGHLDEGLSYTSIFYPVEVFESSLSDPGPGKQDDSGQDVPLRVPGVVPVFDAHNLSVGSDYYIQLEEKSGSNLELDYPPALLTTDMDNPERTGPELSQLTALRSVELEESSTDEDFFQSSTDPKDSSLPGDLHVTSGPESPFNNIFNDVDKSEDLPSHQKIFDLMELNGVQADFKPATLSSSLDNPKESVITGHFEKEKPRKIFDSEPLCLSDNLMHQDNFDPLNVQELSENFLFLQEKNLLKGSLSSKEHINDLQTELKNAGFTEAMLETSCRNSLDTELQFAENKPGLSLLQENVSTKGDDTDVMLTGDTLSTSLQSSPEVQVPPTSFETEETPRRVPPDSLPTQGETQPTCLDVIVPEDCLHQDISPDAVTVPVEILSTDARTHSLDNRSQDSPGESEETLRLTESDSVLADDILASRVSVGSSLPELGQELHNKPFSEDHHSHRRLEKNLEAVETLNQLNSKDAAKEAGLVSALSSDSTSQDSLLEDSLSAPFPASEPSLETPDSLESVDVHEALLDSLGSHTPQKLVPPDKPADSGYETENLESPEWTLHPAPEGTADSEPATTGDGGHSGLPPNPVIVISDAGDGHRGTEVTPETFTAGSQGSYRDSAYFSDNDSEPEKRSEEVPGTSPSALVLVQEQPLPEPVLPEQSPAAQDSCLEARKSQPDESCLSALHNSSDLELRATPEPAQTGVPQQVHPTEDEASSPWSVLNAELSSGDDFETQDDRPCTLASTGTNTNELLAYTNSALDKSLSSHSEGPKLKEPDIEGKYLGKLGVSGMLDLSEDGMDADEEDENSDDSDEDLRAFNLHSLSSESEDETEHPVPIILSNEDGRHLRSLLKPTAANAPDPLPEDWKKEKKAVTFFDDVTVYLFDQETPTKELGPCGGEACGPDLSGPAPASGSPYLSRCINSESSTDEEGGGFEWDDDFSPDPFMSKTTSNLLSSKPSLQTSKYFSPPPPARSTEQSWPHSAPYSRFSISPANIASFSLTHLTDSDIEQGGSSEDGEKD
UniProt O60884: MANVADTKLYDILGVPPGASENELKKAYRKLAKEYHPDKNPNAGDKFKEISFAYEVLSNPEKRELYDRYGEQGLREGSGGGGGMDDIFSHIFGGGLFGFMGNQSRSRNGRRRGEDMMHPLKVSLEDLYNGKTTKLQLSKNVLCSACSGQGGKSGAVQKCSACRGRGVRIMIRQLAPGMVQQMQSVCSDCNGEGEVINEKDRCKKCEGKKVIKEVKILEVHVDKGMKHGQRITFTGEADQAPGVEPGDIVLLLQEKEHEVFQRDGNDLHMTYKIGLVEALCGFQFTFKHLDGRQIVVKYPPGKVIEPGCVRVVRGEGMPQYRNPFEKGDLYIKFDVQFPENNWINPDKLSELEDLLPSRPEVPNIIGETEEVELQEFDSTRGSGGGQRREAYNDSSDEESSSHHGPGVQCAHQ
UniProt O75396: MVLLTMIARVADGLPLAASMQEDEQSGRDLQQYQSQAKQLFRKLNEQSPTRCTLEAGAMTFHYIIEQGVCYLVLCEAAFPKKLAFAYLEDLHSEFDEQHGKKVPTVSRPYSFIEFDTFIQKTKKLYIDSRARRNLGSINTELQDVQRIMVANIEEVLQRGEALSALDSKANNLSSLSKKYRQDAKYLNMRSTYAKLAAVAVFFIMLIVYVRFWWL
UniProt P28066: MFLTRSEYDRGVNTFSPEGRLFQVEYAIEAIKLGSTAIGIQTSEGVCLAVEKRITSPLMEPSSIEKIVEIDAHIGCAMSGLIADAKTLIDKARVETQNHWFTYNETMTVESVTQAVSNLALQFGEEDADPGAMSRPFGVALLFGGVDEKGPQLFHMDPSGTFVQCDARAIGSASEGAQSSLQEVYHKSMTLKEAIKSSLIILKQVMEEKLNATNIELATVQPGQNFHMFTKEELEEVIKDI
UniProt P25788: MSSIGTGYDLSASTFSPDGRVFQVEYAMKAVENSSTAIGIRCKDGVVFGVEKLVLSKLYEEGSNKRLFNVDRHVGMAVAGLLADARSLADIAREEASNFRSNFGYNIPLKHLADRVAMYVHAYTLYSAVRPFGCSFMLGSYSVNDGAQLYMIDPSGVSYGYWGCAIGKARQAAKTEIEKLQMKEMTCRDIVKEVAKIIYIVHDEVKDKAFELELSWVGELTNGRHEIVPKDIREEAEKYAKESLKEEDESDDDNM
UniProt P49721: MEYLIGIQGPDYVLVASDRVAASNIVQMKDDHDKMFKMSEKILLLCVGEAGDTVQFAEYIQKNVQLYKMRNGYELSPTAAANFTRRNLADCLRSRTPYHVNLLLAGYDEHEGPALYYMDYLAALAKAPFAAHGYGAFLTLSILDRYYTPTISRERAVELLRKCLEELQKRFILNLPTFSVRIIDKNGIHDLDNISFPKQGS
UniProt P46379: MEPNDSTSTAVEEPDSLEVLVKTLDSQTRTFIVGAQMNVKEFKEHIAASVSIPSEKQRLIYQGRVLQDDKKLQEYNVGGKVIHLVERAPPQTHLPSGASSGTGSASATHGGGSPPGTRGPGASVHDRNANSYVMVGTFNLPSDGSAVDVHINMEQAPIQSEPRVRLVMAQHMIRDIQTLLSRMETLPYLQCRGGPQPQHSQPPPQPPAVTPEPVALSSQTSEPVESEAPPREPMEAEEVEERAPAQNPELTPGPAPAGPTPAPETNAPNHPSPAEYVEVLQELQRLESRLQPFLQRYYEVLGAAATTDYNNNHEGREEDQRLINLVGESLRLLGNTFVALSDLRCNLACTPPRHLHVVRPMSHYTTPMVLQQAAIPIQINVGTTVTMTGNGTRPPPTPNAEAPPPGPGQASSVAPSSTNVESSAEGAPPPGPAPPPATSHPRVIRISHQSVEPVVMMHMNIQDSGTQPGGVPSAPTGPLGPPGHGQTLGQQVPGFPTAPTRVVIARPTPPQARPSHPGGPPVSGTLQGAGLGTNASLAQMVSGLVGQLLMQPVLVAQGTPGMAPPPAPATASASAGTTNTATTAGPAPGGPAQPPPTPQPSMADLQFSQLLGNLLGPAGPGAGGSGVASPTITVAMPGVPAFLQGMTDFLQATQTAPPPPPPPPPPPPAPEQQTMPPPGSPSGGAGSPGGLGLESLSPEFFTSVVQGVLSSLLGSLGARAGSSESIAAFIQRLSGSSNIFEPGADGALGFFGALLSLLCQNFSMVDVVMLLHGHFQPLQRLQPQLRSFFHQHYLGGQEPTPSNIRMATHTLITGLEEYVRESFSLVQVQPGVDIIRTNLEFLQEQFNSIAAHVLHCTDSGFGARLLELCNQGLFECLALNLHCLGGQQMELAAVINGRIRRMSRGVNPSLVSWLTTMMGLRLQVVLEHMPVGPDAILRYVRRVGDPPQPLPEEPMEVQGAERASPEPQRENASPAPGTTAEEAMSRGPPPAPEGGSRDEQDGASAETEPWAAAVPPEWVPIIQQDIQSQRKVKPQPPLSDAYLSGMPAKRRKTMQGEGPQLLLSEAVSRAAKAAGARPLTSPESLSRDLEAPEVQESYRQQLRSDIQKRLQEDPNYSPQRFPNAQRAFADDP
UniProt P51570: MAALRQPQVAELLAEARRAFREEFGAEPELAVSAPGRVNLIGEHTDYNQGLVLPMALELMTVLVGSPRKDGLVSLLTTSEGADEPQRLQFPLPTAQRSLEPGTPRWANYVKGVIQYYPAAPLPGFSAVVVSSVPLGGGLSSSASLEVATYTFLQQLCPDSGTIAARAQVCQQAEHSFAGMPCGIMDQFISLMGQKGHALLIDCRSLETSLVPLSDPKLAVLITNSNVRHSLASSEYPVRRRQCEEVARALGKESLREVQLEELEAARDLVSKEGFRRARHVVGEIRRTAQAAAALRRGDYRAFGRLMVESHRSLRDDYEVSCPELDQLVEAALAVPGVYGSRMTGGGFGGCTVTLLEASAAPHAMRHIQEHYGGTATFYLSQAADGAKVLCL
UniProt P50995: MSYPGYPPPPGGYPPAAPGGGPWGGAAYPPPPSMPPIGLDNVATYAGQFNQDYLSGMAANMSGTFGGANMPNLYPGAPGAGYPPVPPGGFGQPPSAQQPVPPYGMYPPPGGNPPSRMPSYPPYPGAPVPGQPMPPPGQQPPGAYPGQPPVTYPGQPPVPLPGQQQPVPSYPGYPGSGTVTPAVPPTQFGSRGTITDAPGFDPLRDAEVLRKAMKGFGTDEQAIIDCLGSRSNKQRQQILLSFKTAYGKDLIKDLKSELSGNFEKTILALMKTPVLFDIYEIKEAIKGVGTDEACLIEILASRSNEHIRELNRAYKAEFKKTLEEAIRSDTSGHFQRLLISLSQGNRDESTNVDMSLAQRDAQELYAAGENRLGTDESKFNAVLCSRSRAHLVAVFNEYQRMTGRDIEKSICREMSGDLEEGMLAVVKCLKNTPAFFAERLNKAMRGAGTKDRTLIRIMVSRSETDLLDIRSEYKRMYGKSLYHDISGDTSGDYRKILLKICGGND
UniProt Q8WW22: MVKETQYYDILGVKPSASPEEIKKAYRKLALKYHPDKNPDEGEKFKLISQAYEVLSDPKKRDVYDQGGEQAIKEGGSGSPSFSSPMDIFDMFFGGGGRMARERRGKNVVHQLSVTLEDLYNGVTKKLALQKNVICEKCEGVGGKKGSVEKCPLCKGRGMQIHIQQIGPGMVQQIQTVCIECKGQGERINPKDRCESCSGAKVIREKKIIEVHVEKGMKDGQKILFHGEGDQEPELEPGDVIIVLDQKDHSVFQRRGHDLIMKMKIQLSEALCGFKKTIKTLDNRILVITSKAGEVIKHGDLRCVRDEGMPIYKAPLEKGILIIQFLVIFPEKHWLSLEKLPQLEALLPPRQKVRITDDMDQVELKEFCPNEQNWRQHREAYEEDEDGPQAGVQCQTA

Syntaxin-17 (STX17) (from UniProt P56962 1-302)
binding (FLAG-BirA*-∆F508-CFTR): binds

SLC25A1 (from UniProt P53007 14-311)
binding (FLAG-BirA*-∆F508-CFTR): binds

DJA1 (from UniProt P31689 1-397)
binding (FLAG-BirA*-∆F508-CFTR): binds

Stromal Interaction Molecule 1 (STIM1) (from UniProt Q13586 23-685)
binding (FLAG-BirA*-∆F508-CFTR): binds

Stress-induced phosphoprotein 1 (Stip1) (from UniProt P31948 1-543)
binding (FLAG-BirA*-∆F508-CFTR): binds

Lemur Tyrosine Kinase 2 (LMTK2) (from UniProt Q8IWU2 1-1503)
binding [1]: binds

DJA2 (from UniProt O60884 1-412)
binding (FLAG-BirA*-∆F508-CFTR): binds

SEC22B (from UniProt O75396 1-215)
binding (FLAG-BirA*-∆F508-CFTR): binds

PSMA5 (from UniProt P28066 1-241)
binding (FLAG-BirA*-∆F508-CFTR): binds

PSMA3 (from UniProt P25788 1-255)
binding (FLAG-BirA*-∆F508-CFTR): binds

PSMB2 (from UniProt P49721 1-201)
binding (FLAG-BirA*-∆F508-CFTR): binds

BAG6 (Bcl2-associated athanogene 6) (from UniProt P46379 1-1132)
binding (FLAG-BirA*-∆F508-CFTR): binds

GALK1 (from UniProt P51570 1-392)
binding (FLAG-BirA*-∆F508-CFTR): binds

ANXA11 (from UniProt P50995 1-505)
binding (FLAG-BirA*-∆F508-CFTR): binds

DNAJA4 (from UniProt Q8WW22 1-397)
binding (FLAG-BirA*-∆F508-CFTR): binds

sequestosome 1 (SQSTM1) (from UniProt Q13501 1-440)
binding (FLAG-BirA*-∆F508-CFTR): binds

B1: COPB2 (COPI Coat Complex Subunit Beta 2) (protein, UniProt P35606 1-906)
chain: MPLRLDIKRKLTARSDRVKSVDLHPTEPWMLASLYNGSVCVWNHETQTLVKTFEVCDLPVRAAKFVARKNWVVTGADDMQIRVFNYNTLERVHMFEAHSDYIRCIAVHPTQPFILTSSDDMLIKLWDWDKKWSCSQVFEGHTHYVMQIVINPKDNNQFASASLDRTIKVWQLGSSSPNFTLEGHEKGVNCIDYYSGGDKPYLISGADDRLVKIWDYQNKTCVQTLEGHAQNVSCASFHPELPIIITGSEDGTVRIWHSSTYRLESTLNYGMERVWCVASLRGSNNVALGYDEGSIIVKLGREEPAMSMDANGKIIWAKHSEVQQANLKAMGDAEIKDGERLPLAVKDMGSCEIYPQTIQHNPNGRFVVVCGDGEYIIYTAMALRNKSFGSAQEFAWAHDSSEYAIRESNSIVKIFKNFKEKKSFKPDFGAESIYGGFLLGVRSVNGLAFYDWDNTELIRRIEIQPKHIFWSDSGELVCIATEESFFILKYLSEKVLAAQETHEGVTEDGIEDAFEVLGEIQEIVKTGLWVGDCFIYTSSVNRLNYYVGGEIVTIAHLDRTMYLLGYIPKDNRLYLGDKELNIISYSLLVSVLEYQTAVMRRDFSMADKVLPTIPKEQRTRVAHFLEKQGFKQQALTVSTDPEHRFELALQLGELKIAYQLAVEAESEQKWKQLAELAISKCQFGLAQECLHHAQDYGGLLLLATASGNANMVNKLAEGAERDGKNNVAFMSYFLQGKVDACLELLIRTGRLPEAAFLARTYLPSQVSRVVKLWRENLSKVNQKAAESLADPTEYENLFPGLKEAFVVEEWVKETHADLWPAKQYPLVTPNEERNVMEEGKDFQPSRSTAQQELDGKPASPTPVIVASHTANKEEKSLLELEVDLDNLELEDIDTTDINLDEDILDD
binding (FLAG-BirA*-∆F508-CFTR): binds

B2: OCLN (Occludin) (protein, UniProt Q16625 1-522)
chain: MSSRPLESPPPYRPDEFKPNHYAPSNDIYGGEMHVRPMLSQPAYSFYPEDEILHFYKWTSPPGVIRILSMLIIVMCIAIFACVASTLAWDRGYGTSLLGGSVGYPYGGSGFGSYGSGYGYGYGYGYGYGGYTDPRAAKGFMLAMAAFCFIAALVIFVTSVIRSEMSRTRRYYLSVIIVSAILGIMVFIATIVYIMGVNPTAQSSGSLYGSQIYALCNQFYTPAATGLYVDQYLYHYCVVDPQEAIAIVLGFMIIVAFALIIFFAVKTRRKMDRYDKSNILWDKEHIYDEQPPNVEEWVKNVSAGTQDVPSPPSDYVERVDSPMAYSSNGKVNDKRFYPESSYKSTPVPEVVQELPLTSPVDDFRQPRYSSGGNFETPSKRAPAKGRAGRSKRTEQDHYETDYTTGGESCDELEEDWIREYPPITSDQQRQLYKRNFDTGLQEYKSLQSELDEINKELSRLDKELDDYREESEEYMAAADEYNRLKQVKGSADYKSKKNHCKQLKSKLSHIKKMVGDYDRQKT
binding (FLAG-BirA*-∆F508-CFTR): binds

B3: VANGL1 (protein, UniProt Q8TAA9 1-524)
chain: MDTESTYSGYSYYSSHSKKSHRQGERTRERHKSPRNKDGRGSEKSVTIQPPTGEPLLGNDSTRTEEVQDDNWGETTTAITGTSEHSISQEDIARISKDMEDSVGLDCKRYLGLTVASFLGLLVFLTPIAFILLPPILWRDELEPCGTICEGLFISMAFKLLILLIGTWALFFRKRRADMPRVFVFRALLLVLIFLFVVSYWLFYGVRILDSRDRNYQGIVQYAVSLVDALLFIHYLAIVLLELRQLQPMFTLQVVRSTDGESRFYSLGHLSIQRAALVVLENYYKDFTIYNPNLLTASKFRAAKHMAGLKVYNVDGPSNNATGQSRAMIAAAARRRDSSHNELYYEEAEHERRVKKRKARLVVAVEEAFIHIQRLQAEEQQKAPGEVMDPREAAQAIFPSMARALQKYLRITRQQNYHSMESILQHLAFCITNGMTPKAFLERYLSAGPTLQYDKDRWLSTQWRLVSDEAVTNGLRDGIVFVLKCLDFSLVVNVKKIPFIILSEEFIDPKSHKFVLRLQSETSV
binding (FLAG-BirA*-∆F508-CFTR): binds

B4: Syntaxin 5 (STX5) (protein, UniProt Q13190 1-355)
chain: MIPRKRYGSKNTDQGVYLGLSKTQVLSPATAGSSSSDIAPLPPPVTLVPPPPDTMSCRDRTQEFLSACKSLQTRQNGIQTNKPALRAVRQRSEFTLMAKRIGKDLSNTFAKLEKLTILAKRKSLFDDKAVEIEELTYIIKQDINSLNKQIAQLQDFVRAKGSQSGRHLQTHSNTIVVSLQSKLASMSNDFKSVLEVRTENLKQQRSRREQFSRAPVSALPLAPNHLGGGAVVLGAESHASKDVAIDMMDSRTSQQLQLIDEQDSYIQSRADTMQNIESTIVELGSIFQQLAHMVKEQEETIQRIDENVLGAQLDVEAAHSEILKYFQSVTSNRWLMVKIFLILIVFFIIFVVFLA
binding (FLAG-BirA*-∆F508-CFTR): binds

B5: Syntaxin-12 (STX12) (protein, UniProt Q86Y82 1-276)
chain: MSYGPLDMYRNPGPSGPQLRDFSSIIQTCSGNIQRISQATAQIKNLMSQLGTKQDSSKLQENLQQLQHSTNQLAKETNELLKELGSLPLPLSTSEQRQQRLQKERLMNDFSAALNNFQAVQRRVSEKEKESIARARAGSRLSAEERQREEQLVSFDSHEEWNQMQSQEDEVAITEQDLELIKERETAIRQLEADILDVNQIFKDLAMMIHDQGDLIDSIEANVESSEVHVERATEQLQRAAYYQKKSRKKMCILVLVLSVIILILGLIIWLVYKTK
binding (FLAG-BirA*-∆F508-CFTR): binds

B6: Syntaxin 18 (STX18) (protein, UniProt Q9P2W9 1-335)
chain: MAVDITLLFRASVKTVKTRNKALGVAVGGGVDGSRDELFRRSPRPKGDFSSRAREVISHIGKLRDFLLEHRKDYINAYSHTMSEYGRMTDTERDQIDQDAQIFMRTCSEAIQQLRTEAHKEIHSQQVKEHRTAVLDFIEDYLKRVCKLYSEQRAIRVKRVVDKKRLSKLEPEPNTKTRESTSSEKVSQSPSKDSEENPATEERPEKILAETQPELGTWGDGKGEDELSPEEIQMFEQENQRLIGEMNSLFDEVRQIEGRVVEISRLQEIFTEKVLQQEAEIDSIHQLVVGATENIKEGNEDIREAIKNNAGFRVWILFFLVMCSFSLLFLDWYDS
binding (FLAG-BirA*-∆F508-CFTR): binds

B7: BAG5 (Bcl2-associated athanogene 5) (protein, UniProt Q9UL15 1-447)
chain: MDMGNQHPSISRLQEIQKEVKSVEQQVIGFSGLSDDKNYKKLERILTKQLFEIDSVDTEGKGDIQQARKRAAQETERLLKELEQNANHPHRIEIQNIFEEAQSLVREKIVPFYNGGNCVTDEFEEGIQDIILRLTHVKTGGKISLRKARYHTLTKICAVQEIIEDCMKKQPSLPLSEDAHPSVAKINFVMCEVNKARGVLIALLMGVNNNETCRHLSCVLSGLIADLDALDVCGRTEIRNYRREVVEDINKLLKYLDLEEEADTTKAFDLRQNHSILKIEKVLKRMREIKNELLQAQNPSELYLSSKTELQGLIGQLDEVSLEKNPCIREARRRAVIEVQTLITYIDLKEALEKRKLFACEEHPSHKAVWNVLGNLSEIQGEVLSFDGNRTDKNYIRLEELLTKQLLALDAVDPQGEEKCKAARKQAVRLAQNILSYLDLKSDEWEY
binding (FLAG-BirA*-∆F508-CFTR): binds

B8: Solute Carrier protein family 30A9 (SLC30A9) (protein, UniProt Q6PML9 68-568)
chain: STNVQKEGQGSQTLRVEKVPSFETAEGIGTELKAPLKQEPLQVRVKAVLKKREYGSKYTQNNFITGVRAINEFCLKSSDLEQLRKIRRRSPHEDTESFTVYLRSDVEAKSLEVWGSPEALAREKKLRKEAEIEYRERLFRNQKILREYRDFLGNTKPRSRTASVFFKGPGKVVMVAICINGLNCFFKFLAWIYTGSASMFSEAIHSLSDTCNQGLLALGISKSVQTPDPSHPYGFSNMRYISSLISGVGIFMMGAGLSWYHGVMGLLHPQPIESLLWAYCILAGSLVSEGATLLVAVNELRRNARAKGMSFYKYVMESRDPSTNVILLEDTAAVLGVIIAATCMGLTSITGNPLYDSLGSLGVGTLLGMVSAFLIYTNTEALLGRSIQPEQVQRLTELLENDPSVRAIHDVKATDLGLGKVRFKAEVDFDGRVVTRSYLEKQDFDQMLQEIQEVKTPEELETFMLKHGENIIDTLGAEVDRLEKELKKRNPEVRHVDLEIL
binding (FLAG-BirA*-∆F508-CFTR): binds
